Measured values taken from patent publication US11680062B2, “3,4-methylenedioxyphenylimidazolylethanonexime ether derivative, preparation method and use thereof, and drug for the treatment of Alzheimer's disease” (NORTHWEST A&F UNIVERSITY, priority 2021, dated 2023).
Where two headings read alike, the source gives them in different places.

Test system: NO production in lipopolysaccharide-induced BV-2 microglia
Test: Inhibition of NO production in lipopolysaccharide-induced BV-2 microglia
Format: cell-based
Conditions: Mus musculus

EC50 (read-out: EC50 (inhibition of NO production)): 13.5 µM
EC50 (read-out: EC50 (inhibitory effect on the NO production)): 13.5 ± 0.1 µM
Structure (SMILES): Clc1ccc(CO/N=C(\Cn2ccnc2)c2ccc(Cl)cc2Cl)c(Cl)c1 [oxiconazole, reference compound]
